These are yes or no findings as the source states them, for the method shown. In cells and extracts the contact can be indirect. Some entries that bind do so weakly or less than the wild type. Values belong to the substance of their own block, whether it stands above or below them.
Legend:
FLAG-tagged TRIM50 [1] = target: FLAG-tagged TRIM50 (UniProt Q86XT4); assay: pull-down; 3 µg of GST-recombinant protein mixed with 40 µg of total FLAG-TRIM50#3 cell lysate, 4°C for 2 h, then FLAG antibody for 4 h; washed four times; blot anti-GST; only the binder purified
FLAG-tagged TRIM50 [2] = target: FLAG-tagged TRIM50 (UniProt Q86XT4); assay: co-IP; lysates of the HEK293 FLAG-TRIM50#3 cell line, with and without MG132; IP anti-FLAG, immunoblot with HDAC6 antibody
FLAG-tagged TRIM50 [3] = target: FLAG-tagged TRIM50 (UniProt Q86XT4); assay: co-IP; FLAG-TRIM50#3 cells transfected with Myc-p62; total lysates IP anti-FLAG and blot anti-Myc, and IP anti-Myc and blot anti-FLAG
Myc-tagged p62 = Myc-tagged p62 (UniProt Q13501); assay: as above
[4] = target: FLAG-Tubb2b (Tubulin beta 2B class IIb) (human) (UniProt Q9BVA1); assay: co-IP; HEK293 cells transiently expressing FLAG-Tubb2b and EGFP-TRIM50; lysates IP anti-FLAG, blot anti-GFP

Protein sequences, listed by entry. Tags and fused reporters are not part of them.
UniProt Q86XT4: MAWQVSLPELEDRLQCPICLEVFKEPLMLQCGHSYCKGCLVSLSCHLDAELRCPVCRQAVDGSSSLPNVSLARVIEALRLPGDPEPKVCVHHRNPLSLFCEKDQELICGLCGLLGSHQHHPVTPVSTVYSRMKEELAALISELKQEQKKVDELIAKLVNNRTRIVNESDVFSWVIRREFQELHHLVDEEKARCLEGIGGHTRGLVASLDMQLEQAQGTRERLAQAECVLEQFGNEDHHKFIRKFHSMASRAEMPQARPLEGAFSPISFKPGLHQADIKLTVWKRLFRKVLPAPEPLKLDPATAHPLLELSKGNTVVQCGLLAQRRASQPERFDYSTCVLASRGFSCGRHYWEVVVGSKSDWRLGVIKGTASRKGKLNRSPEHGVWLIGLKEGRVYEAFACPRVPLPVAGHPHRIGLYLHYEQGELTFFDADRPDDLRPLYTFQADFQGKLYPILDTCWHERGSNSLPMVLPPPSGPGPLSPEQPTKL
UniProt Q9BVA1: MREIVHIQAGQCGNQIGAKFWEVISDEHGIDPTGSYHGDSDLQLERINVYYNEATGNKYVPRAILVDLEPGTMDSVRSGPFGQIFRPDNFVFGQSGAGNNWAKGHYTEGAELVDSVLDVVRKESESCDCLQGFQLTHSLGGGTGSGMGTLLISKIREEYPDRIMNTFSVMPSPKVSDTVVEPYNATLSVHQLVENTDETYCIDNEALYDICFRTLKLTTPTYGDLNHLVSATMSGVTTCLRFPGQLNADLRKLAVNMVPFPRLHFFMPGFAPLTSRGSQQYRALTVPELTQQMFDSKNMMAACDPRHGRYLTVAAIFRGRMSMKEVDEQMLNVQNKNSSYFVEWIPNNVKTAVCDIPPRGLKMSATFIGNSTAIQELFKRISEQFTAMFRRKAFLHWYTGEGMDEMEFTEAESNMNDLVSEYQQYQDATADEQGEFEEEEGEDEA
UniProt Q9UBN7: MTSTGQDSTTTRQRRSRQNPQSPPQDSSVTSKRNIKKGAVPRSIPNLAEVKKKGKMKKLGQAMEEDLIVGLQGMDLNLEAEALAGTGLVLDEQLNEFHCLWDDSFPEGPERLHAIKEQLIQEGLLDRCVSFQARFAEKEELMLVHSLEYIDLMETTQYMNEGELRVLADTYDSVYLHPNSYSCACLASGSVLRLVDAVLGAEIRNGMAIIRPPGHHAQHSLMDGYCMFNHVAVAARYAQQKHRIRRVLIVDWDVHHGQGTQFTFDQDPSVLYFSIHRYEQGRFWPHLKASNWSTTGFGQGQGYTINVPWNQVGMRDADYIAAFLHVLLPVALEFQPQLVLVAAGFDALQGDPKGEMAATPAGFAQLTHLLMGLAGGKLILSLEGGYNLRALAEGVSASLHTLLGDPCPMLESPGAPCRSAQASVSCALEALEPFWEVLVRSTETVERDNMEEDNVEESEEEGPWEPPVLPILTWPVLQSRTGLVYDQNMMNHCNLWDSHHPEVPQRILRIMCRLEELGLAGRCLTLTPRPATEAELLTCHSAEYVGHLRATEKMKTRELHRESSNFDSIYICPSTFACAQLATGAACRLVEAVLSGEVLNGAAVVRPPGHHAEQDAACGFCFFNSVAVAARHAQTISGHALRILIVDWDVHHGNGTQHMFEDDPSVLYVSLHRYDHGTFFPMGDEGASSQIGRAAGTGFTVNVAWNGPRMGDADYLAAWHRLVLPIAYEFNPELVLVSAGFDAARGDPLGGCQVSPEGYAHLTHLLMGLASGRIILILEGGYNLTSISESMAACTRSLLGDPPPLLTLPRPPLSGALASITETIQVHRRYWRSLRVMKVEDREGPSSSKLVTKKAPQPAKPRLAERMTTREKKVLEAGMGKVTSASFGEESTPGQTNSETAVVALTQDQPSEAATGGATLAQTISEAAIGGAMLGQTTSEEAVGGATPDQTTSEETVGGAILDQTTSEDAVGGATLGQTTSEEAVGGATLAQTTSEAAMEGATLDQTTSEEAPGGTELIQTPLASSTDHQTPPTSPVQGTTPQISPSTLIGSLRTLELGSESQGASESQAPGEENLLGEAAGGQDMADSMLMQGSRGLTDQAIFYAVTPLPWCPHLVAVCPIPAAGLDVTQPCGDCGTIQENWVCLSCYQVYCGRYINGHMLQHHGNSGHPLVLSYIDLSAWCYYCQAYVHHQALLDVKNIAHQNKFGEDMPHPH

binding (FLAG-tagged TRIM50 [1]): binds
Substance: GST-p62 (231–385) (from UniProt Q13501 231-385) (domain or fragment)

binding (FLAG-tagged TRIM50 [2]): binds
Substance: histone deacetylase 6, HDAC6 (from UniProt Q9UBN7 1-1215)

binding (FLAG-tagged TRIM50 [3]): binds
Substance: Myc-tagged p62 (from UniProt Q13501 1-440)

binding (Myc-tagged p62): binds
Substance: FLAG-tagged TRIM50 (from UniProt Q86XT4 1-487) (enzyme)

binding [4]: binds
Substance: EGFP-TRIM50 (from UniProt Q86XT4 1-487) (enzyme)

binding (FLAG-tagged TRIM50 [1]): binds
Substance: GST-p62 (232–370) (from UniProt Q13501 232-370) (domain or fragment)
